Drawing on publication PMC7521653, “Structural analysis of the LDL receptor–interacting FERM domain in the E3 ubiquitin ligase IDOL reveals an obscured substrate-binding site” (The Journal of Biological Chemistry, 2020), this text covers binding for 4 molecules.

Experiment [1] deals with IDOL FERM^278 (residues 1-278) (human) (UniProt Q8WY64). The experiment can be described thus: SEC-MALS; 100 μl of 100 μM protein on Superdex 200 10/300 in 20 mM MES, pH 6.8, 300 mM NaCl, 1 mM TCEP; both purified.
For experiment [2], the target named is IDOL FERM domain, residues 1-344 (FERM^344) (human) (UniProt Q8WY64). Briefly: SAXS; SEC-coupled SAXS, Superdex 200 Increase 3.2/300 in 20 mM MES, pH 6.8, 300 mM NaCl, 1 mM TCEP; FERM^344 injected at 9.86 mg/ml (255 μM); both purified.
The target is the same in experiment [3]. Briefly: crystal structure; FERM^344, space group I4(1)22, one molecule in the asymmetric unit; dimer and tetramer made by crystallographic symmetry; both purified.
Experiment [4] shares this target. Briefly: SEC-MALS; 100 μl of 100 μM protein on Superdex 200 10/300 in 20 mM MES, pH 6.8, 300 mM NaCl, 1 mM TCEP; both purified. (In gel filtration, larger molecules generally elute earlier.)
For experiment [5], the target named is IDOL FERM^304 (residues 1-304) (human) (UniProt Q8WY64). The experiment is described as above.
Experiment [6] concerns the target IDOL FERM^332 (residues 1-332) (human) (UniProt Q8WY64). The experiment is described as above.

These are yes or no findings as the source states them, for the method shown.

B1: IDOL FERM^278 (residues 1-278) (domain or fragment, UniProt Q8WY64 1-278)
chain: MLCYVTRPDAVLMEVEVEAKANGEDCLNQVCRRLGIIEVDYFGLQFTGSKGESLWLNLRNRISQQMDGLAPYRLKLRVKFFVEPHLILQEQTRHIFFLHIKEALLAGHLLCSPEQAVELSALLAQTKFGDYNQNTAKYNYEELCAKELSSATLNSIVAKHKELEGTSQASAEYQVLQIVSAMENYGIEWHSVRDSEGQKLLIGVGPEGISICKDDFSPINRIAYPVVQMATQSGKNVYLTVTKESGNSIVLLFKMISTRAASGLYRAITETHAFYRCD
B1: the binding result in experiment [1] was “no binding (tested: 100 μM)”.

B2: IDOL FERM domain, residues 1-344 (FERM^344) (domain or fragment, UniProt Q8WY64 1-344)
chain: MLCYVTRPDAVLMEVEVEAKANGEDCLNQVCRRLGIIEVDYFGLQFTGSKGESLWLNLRNRISQQMDGLAPYRLKLRVKFFVEPHLILQEQTRHIFFLHIKEALLAGHLLCSPEQAVELSALLAQTKFGDYNQNTAKYNYEELCAKELSSATLNSIVAKHKELEGTSQASAEYQVLQIVSAMENYGIEWHSVRDSEGQKLLIGVGPEGISICKDDFSPINRIAYPVVQMATQSGKNVYLTVTKESGNSIVLLFKMISTRAASGLYRAITETHAFYRCDTVTSAVMMQYSRDLKGHLASLFLNENINLGKKYVFDIKRTSKEVYDHARRALYNAGVVDLVSRNNQ
B2: the figures for the binding entry in experiment [2], in experiment [3] and in experiment [4] were “no binding (tested: 255 μM)”, “no binding” and “no binding (tested: 100 μM)”, respectively.

B3: IDOL FERM^304 (residues 1-304) (domain or fragment, UniProt Q8WY64 1-304)
chain: MLCYVTRPDAVLMEVEVEAKANGEDCLNQVCRRLGIIEVDYFGLQFTGSKGESLWLNLRNRISQQMDGLAPYRLKLRVKFFVEPHLILQEQTRHIFFLHIKEALLAGHLLCSPEQAVELSALLAQTKFGDYNQNTAKYNYEELCAKELSSATLNSIVAKHKELEGTSQASAEYQVLQIVSAMENYGIEWHSVRDSEGQKLLIGVGPEGISICKDDFSPINRIAYPVVQMATQSGKNVYLTVTKESGNSIVLLFKMISTRAASGLYRAITETHAFYRCDTVTSAVMMQYSRDLKGHLASLFLNEN
Regarding B3, in experiment [5], the binding result is “no binding (tested: 100 μM)”.

B4: IDOL FERM^332 (residues 1-332) (domain or fragment, UniProt Q8WY64 1-332)
chain: MLCYVTRPDAVLMEVEVEAKANGEDCLNQVCRRLGIIEVDYFGLQFTGSKGESLWLNLRNRISQQMDGLAPYRLKLRVKFFVEPHLILQEQTRHIFFLHIKEALLAGHLLCSPEQAVELSALLAQTKFGDYNQNTAKYNYEELCAKELSSATLNSIVAKHKELEGTSQASAEYQVLQIVSAMENYGIEWHSVRDSEGQKLLIGVGPEGISICKDDFSPINRIAYPVVQMATQSGKNVYLTVTKESGNSIVLLFKMISTRAASGLYRAITETHAFYRCDTVTSAVMMQYSRDLKGHLASLFLNENINLGKKYVFDIKRTSKEVYDHARRALYN
As for B4, the binding entry in experiment [6] is on record as “no binding (tested: 100 μM)”.
